Literature values, collected in patent publication US5783575A, “Antagonists, their preparation and use” (Novo Nordisk A/S, priority 1994, dated 1998).
For at least one compound, name, drawing or mass did not settle the structure.

Assays:
[1] = system: metabotropic glutamate receptor; conditions: cited from earlier work
control BHK cells = conditions: 1 mM; cited from earlier work

Structure (SMILES): N[C@@H](CCC(=O)O)C(=O)O [glutamate, L-glutamate]
- agonism on the metabotropic glutamate receptor [1]: non-selective agonists
- stimulation of PI-hydrolysis (control BHK cells): no stimulation
